Results: the supplement of paper PMC9015667
Structures can show the parent of a compound that is named as a salt. ± gives the standard deviation of the averaged measurements. The list shows a part of the results. Single values are uncertain, as repeats are few or missing.

Tests used:
Assay in all cases: reduction in cell viability relative to untreated/vehicle; higher = more growth inhibition
Details in all cases: 200 nM; 72 h
M229P = tested on: M229P (parental melanoma line)
M229R = tested on: M229R (matched melanoma line resistant to BRAF inhibitors)
M238P = tested on: M238P (parental melanoma line)
M238R = tested on: M238R (matched melanoma line resistant to BRAF inhibitors)
M249P = tested on: M249P (parental melanoma line)
M249R = tested on: M249R (matched melanoma line resistant to BRAF inhibitors)
UACC62P = tested on: UACC62P (parental melanoma line)
UACC62R = tested on: UACC62R (matched melanoma line resistant to BRAF inhibitors)

SMILES	reduction in cell viability (M229P) [%]	reduction in cell viability (M229R) [%]	reduction in cell viability (M238P) [%]	reduction in cell viability (M238R) [%]	reduction in cell viability (M249P) [%]	reduction in cell viability (M249R) [%]	reduction in cell viability (UACC62P) [%]	reduction in cell viability (UACC62R) [%]
CCc1ccc(/C=C2/SC(=S)NC2=O)cc1	< 0	< 0	< 0	< 0	< 0	< 0	< 0	< 0
CO[C@@H]1[C@H](N(C)C(=O)c2ccccc2)C[C@H]2O[C@]1(C)n1c3ccccc3c3c4c(c5c6ccccc6n2c5c31)C(=O)NC4	< 0	9.67	18.4	58.1	< 0	< 0	< 0	31.6
C[C@H](NCc1ccc2c(c1)nc(NC(=O)c1ccc(-c3cn[nH]c3)s1)n2CCc1ccccc1)C(C)(C)C	73.2	66.6	102	72.2	92.5	93.4	90	80.5
CC1=C(CO)C(=O)O[C@@H]([C@@H](C)[C@H]2CC[C@H]3[C@@H]4C[C@H]5O[C@]56[C@@H](O)C=CC(=O)[C@]6(C)[C@H]4CC[C@]23C)C1 [Withaferin A]	25.9	60.3	65.8	37.5	< 0	< 0	29.7	61.6
CN1CC(=O)N2[C@H](c3ccc4c(c3)OCO4)c3[nH]c4ccccc4c3C[C@@H]2C1=O [Tadalafil]	< 0	< 0	< 0	< 0	< 0	< 0	5.36	< 0
CC(C)CC(=O)N[C@H](C(=O)N[C@H](C(=O)N[C@@H](CC(C)C)[C@@H](O)CC(=O)N[C@@H](C)C(=O)N[C@@H](CC(C)C)[C@@H](O)CC(=O)O)C(C)C)C(C)C [Pepstatin]	< 0	< 0	< 0	37.3	< 0	< 0	2.5	< 0
CN1CCC(CNc2ccc3ncc(-c4cccc(OC(F)(F)F)c4)n3n2)CC1	< 0	< 0	< 0	< 0	< 0	< 0	< 0	< 0
CCCS(=O)(=O)Nc1ccc(F)c(C(=O)c2c[nH]c3ncc(Cl)cc23)c1F	< 0	< 0	24.1	< 0	7.58	< 0	42.6	< 0
N=C(N)NC(=O)c1nc(Cl)c(N)nc1N [Amiloride]	< 0	< 0	< 0	< 0	< 0	< 0	< 0	< 0
O=C(O)Cn1nnc(-c2cc(N3CCC(Oc4cc(F)ccc4Br)CC3)no2)n1	< 0	< 0	< 0	< 0	< 0	< 0	< 0	< 0
O=c1ncn2nc(Sc3ccc(F)cc3F)ccc2c1-c1c(Cl)cccc1Cl	< 0	< 0	< 0	< 0	< 0	< 0	< 0	< 0
Nc1[nH]nc2nnc(-c3c(-c4ccccc4)nn4ccccc34)cc12	< 0	< 0	4.03	< 0	< 0	< 0	< 0	< 0
CS(=O)(=O)CCNCc1ccc(-c2ccc3ncnc(Nc4ccc(OCc5cccc(F)c5)c(Cl)c4)c3c2)o1 [Lapatinib]	< 0	< 0	< 0	< 0	< 0	< 0	< 0	< 0
CO/N=C(\C(=O)N[C@@H]1C(=O)N2C(C(=O)O)=C(CSC(=O)c3ccco3)CS[C@H]12)c1csc(N)n1 [Ceftiofur hydrochloride]	< 0	< 0	< 0	< 0	< 0	< 0	< 0	< 0
CNC(=O)[C@H](Cc1c[nH]c2ccccc12)NC(=O)[C@@H](CC(=O)NO)CC(C)C	< 0	< 0	< 0	< 0	< 0	< 0	1.84	< 0
N[C@@H](CC(=O)N1CCn2c(nnc2C(F)(F)F)C1)Cc1cc(F)c(F)cc1F [Sitagliptin]	< 0	< 0	< 0	< 0	< 0	< 0	< 0	< 0
C=CC(=O)Nc1cc2c(Nc3ccc(F)c(Cl)c3)ncnc2cc1OCCCN1CCOCC1 [Canertinib]	< 0	< 0	< 0	< 0	< 0	< 0	< 0	< 0
NC(N)=Nc1nc(CSCC/C(N)=N/S(N)(=O)=O)cs1 [Famotidine]	< 0	< 0	< 0	< 0	< 0	< 0	< 0	< 0
CC(C)c1cnn2c(NCc3ccccc3)cc(N[C@@H](CO)[C@H](O)CO)nc12	< 0	< 0	25	< 0	< 0	< 0	23.4	44.4
Cc1c(Cn2c(C)nc3c(C(=O)O)cc(N4CCOCC4)cc32)cccc1C(F)(F)F	< 0	< 0	< 0	< 0	< 0	< 0	< 0	< 0

SMILES	reduction in cell viability (M229P) [%]	reduction in cell viability (M229R) [%]	reduction in cell viability (M238P) [%]	reduction in cell viability (M238R) [%]	reduction in cell viability (M249P) [%]	reduction in cell viability (M249R) [%]	reduction in cell viability (UACC62P) [%]	reduction in cell viability (UACC62R) [%]
COc1cc(OC)c(/C=C/S(=O)(=O)Cc2ccc(OC)c(NCC(=O)O)c2)c(OC)c1	22.9	38.2	69.8	68.7	56.3	48	51.3	84
Cc1cnc(Nc2ccc(N3CCN(C)CC3)cc2)nc1Nc1cccc(S(=O)(=O)NC(C)(C)C)c1	< 0	< 0	17.1	< 0	< 0	4.95	15.8	11.1
CC(C)(F)C[C@H](N[C@@H](c1ccc(-c2ccc(S(C)(=O)=O)cc2)cc1)C(F)(F)F)C(=O)NC1(C#N)CC1 [Odanacatib]	< 0	< 0	< 0	< 0	< 0	< 0	< 0	23.3
CN(C)CCCNC(=O)c1ccc(-c2cc(O)c3ncccc3c2)cc1	< 0	< 0	< 0	< 0	< 0	< 0	< 0	< 0
Cc1cc(O)c2c(c1)C(=O)c1cccc(O)c1C2=O [Chrysophanol]	< 0	< 0	< 0	< 0	< 0	< 0	3.72	< 0
O=C(O)CCc1ccc(NCc2cccc(Oc3ccccc3)c2)cc1	< 0	< 0	< 0	< 0	< 0	< 0	< 0	< 0
COc1cc(C(C)C)c2c(c1)S(=O)(=O)N(COc1cc(=O)n3cccc(OCCN4CCCCC4)c3n1)C2=O	< 0	< 0	< 0	< 0	< 0	< 0	< 0	< 0
Cc1ccc2nc(NCCN)c3ncc(C)n3c2c1	< 0	< 0	0.02	< 0	< 0	< 0	0.1	< 0
O=C(O)COCCN1CCN(C(c2ccccc2)c2ccc(Cl)cc2)CC1 (configuration not stated) [Cetirizine hydrochloride]	< 0	< 0	< 0	< 0	< 0	< 0	< 0	< 0
C[Se]CC[C@H](N)C(=O)O [Selenomethionine]	< 0	< 0	< 0	< 0	< 0	< 0	< 0	< 0
CC[C@H](Nc1ncnc2[nH]cnc12)c1nc2cccc(F)c2c(=O)n1-c1ccccc1 [CAL-101 (Idelalisib, GS-1101)]	< 0	< 0	< 0	< 0	< 0	< 0	5.5	< 0
CCC(=O)O[C@]1(C(=O)SCF)[C@H](C)C[C@H]2[C@@H]3C[C@H](F)C4=CC(=O)C=C[C@]4(C)[C@@]3(F)[C@@H](O)C[C@@]21C [Fluticasone propionate]	< 0	< 0	< 0	< 0	6.11	< 0	< 0	< 0
CC1(C)OC2=C(C(=O)c3ccccc3C2=O)[C@H](NCc2ccccc2)[C@@H]1O	0.43	< 0	< 0	< 0	< 0	< 0	0.91	< 0
CO[C@H]1C[C@@H]2CC[C@@H](C)[C@@](O)(O2)C(=O)C(=O)N2CCCC[C@H]2C(=O)O[C@H]([C@H](C)C[C@@H]2CC[C@@H](OCCO)[C@H](OC)C2)CC(=O)[C@H](C)/C=C(\C)[C@@H](O)[C@@H](OC)C(=O)[C@H](C)C[C@H](C)/C=C/C=C/C=C/1C [Everolimus]	6.08 ± 4.4	11.3 ± 3.2	12.6 ± 2.8	3.83 ± 3.3	6.33 ± 2.7	23.2 ± 2.3	11.6 ± 4.3	3.31 ± 4.5
CC[C@H](C)C(=O)O[C@H]1C[C@@H](C)C=C2C=C[C@H](C)[C@H](CC[C@@H]3C[C@@H](O)CC(=O)O3)[C@H]21 [Lovastatin]	< 0	< 0	< 0	< 0	< 0	< 0	< 0	< 0
NC(=O)NO [Hydroxyurea]	< 0	< 0	< 0	< 0	< 0	< 0	13.6	< 0
O=C(O)CCNC(=O)c1ccc(/N=N/c2ccc(O)c(C(=O)O)c2)cc1 [Balsalazide]	< 0	< 0	< 0	< 0	< 0	< 0	2.21	< 0
CC(C)(C)[C@H](NC(=O)c1ccc(N)c(Cl)c1)C(=O)N1CCC[C@H]1C(=O)N[C@H](C#N)CC(=O)O	< 0	< 0	< 0	< 0	< 0	< 0	< 0	< 0
O=C(Nc1cccc2c(=O)cc(-c3nnn[nH]3)oc12)c1ccc(OCCCCc2ccccc2)cc1 [Pranlukast]	< 0	< 0	< 0	< 0	< 0	< 0	< 0	< 0

Rewritten as comma-separated lines: entries from further up.
SMILES,reduction in cell viability (M229P) [%],reduction in cell viability (M229R) [%],reduction in cell viability (M238P) [%],reduction in cell viability (M238R) [%],reduction in cell viability (M249P) [%],reduction in cell viability (M249R) [%],reduction in cell viability (UACC62P) [%],reduction in cell viability (UACC62R) [%]
C[Se]CC[C@H](N)C(=O)O [Selenomethionine],< 0,< 0,< 0,< 0,< 0,< 0,< 0,< 0
"CC[C@H](Nc1ncnc2[nH]cnc12)c1nc2cccc(F)c2c(=O)n1-c1ccccc1 [CAL-101 (Idelalisib, GS-1101)]",< 0,< 0,< 0,< 0,< 0,< 0,5.5,< 0
